Assay results taken from article PMC5777258, “Phosphorylation of human enhancer filamentation 1 (HEF1) stimulates interaction with Polo-like kinase 1 leading to HEF1 localization to focal adhesions” (The Journal of Biological Chemistry, 2017).
These are yes or no findings as the source states them, for the method shown. In cells and extracts the contact can be indirect. Some entries that bind do so weakly or less than the wild type. Where a sequence is shown, tags or fusion partners need not be part of it.

Amino acid sequences for entries named in this document (tags omitted).
UniProt P53350: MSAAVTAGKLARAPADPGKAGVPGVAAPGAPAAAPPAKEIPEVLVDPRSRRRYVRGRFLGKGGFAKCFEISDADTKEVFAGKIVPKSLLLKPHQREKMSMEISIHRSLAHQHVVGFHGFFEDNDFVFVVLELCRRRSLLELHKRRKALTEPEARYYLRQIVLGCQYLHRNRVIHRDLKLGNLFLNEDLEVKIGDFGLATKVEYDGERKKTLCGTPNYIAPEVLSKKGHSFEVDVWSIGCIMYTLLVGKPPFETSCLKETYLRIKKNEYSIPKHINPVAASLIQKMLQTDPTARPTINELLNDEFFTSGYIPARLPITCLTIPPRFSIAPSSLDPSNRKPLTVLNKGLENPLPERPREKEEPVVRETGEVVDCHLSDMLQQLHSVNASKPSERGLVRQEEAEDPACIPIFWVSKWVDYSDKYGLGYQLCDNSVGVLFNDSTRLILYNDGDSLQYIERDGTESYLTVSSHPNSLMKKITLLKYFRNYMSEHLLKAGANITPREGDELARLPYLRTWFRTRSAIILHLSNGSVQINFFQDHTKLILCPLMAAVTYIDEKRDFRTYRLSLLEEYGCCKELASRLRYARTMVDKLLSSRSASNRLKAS

Molecular target: T1, FLAG-HEF1 WT (human enhancer filamentation 1, wild-type, full-length) (human) (UniProt Q14511)
T1 sequence: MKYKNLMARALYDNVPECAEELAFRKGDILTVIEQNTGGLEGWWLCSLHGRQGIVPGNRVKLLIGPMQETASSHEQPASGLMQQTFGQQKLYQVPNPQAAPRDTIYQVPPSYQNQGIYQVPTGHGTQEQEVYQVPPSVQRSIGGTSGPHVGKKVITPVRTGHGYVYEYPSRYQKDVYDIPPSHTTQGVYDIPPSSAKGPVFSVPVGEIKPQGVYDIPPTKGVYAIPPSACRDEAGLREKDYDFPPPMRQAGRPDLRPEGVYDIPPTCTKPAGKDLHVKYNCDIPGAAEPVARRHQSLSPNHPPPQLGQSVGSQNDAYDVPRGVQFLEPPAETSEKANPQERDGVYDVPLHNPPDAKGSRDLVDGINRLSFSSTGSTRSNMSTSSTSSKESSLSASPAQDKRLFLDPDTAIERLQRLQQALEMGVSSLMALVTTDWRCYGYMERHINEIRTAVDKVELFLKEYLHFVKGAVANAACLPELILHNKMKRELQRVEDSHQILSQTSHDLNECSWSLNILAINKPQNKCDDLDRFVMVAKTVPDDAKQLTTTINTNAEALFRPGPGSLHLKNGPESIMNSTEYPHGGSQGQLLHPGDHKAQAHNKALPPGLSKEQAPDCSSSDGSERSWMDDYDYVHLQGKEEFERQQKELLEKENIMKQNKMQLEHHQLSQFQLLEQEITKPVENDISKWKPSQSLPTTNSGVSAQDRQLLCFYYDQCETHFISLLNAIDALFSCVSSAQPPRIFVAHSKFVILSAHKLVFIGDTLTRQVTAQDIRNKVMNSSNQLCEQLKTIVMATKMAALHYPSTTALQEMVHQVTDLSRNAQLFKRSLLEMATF
Test: co-IP; lysates of FLAG-HEF1-transfected cells, thymidine-treated (S phase), asynchronously growing or nocodazole-treated (M phase); immunoprecipitated with anti-FLAG antibody, immunoblotted for Plk1; TBSN buffer (20 mM Tris-Cl pH 8.0, 150 mM NaCl, 0.5% Nonidet P-40), 4 °C

binding: binds
Substance: Polo-like kinase 1 (Plk1), endogenous (from UniProt P53350 1-603)
